No constants are given. Whether binding was seen depends on the method and setting. For some assays here: Binding seen in cells or lysates may run through a third protein. Some entries that bind do so weakly or less than the wild type.
Assays:
[1] = target: full-length human adiponectin (Adipo-HEK) (human) (UniProt Q15848); test: sucrose gradient sedimentation with Western blot; 50 µl of unconcentrated conditioned media of Adipo-HEK cells loaded onto a sucrose gradient; fractions blotted for adiponectin; cells treated with scrambled, GLT25D1 or LH3 siRNA
[2] = target: adiponectin (human (endogenous in SGBS)) (UniProt Q15848); test: co-IP; SGBS adipocyte lysate (modified TK lysis buffer, 0.1% Tween-20), mouse anti-adiponectin antibody or IgG control on Protein G Sepharose, 2 h at 4 °C; Western blot for LH3, GLT25D1 and adiponectin

Sequences of proteins named here, by UniProt entry; tags and fusion partners are left off. Residues count along the entry.
UniProt Q15848, residues 19-244: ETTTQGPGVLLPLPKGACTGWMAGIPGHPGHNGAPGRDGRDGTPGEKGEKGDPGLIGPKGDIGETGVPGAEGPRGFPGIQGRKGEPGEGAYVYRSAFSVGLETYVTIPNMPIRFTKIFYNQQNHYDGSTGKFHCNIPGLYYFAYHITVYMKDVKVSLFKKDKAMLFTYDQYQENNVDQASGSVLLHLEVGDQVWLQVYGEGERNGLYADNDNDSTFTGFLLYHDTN
UniProt O60568, residues 25-738: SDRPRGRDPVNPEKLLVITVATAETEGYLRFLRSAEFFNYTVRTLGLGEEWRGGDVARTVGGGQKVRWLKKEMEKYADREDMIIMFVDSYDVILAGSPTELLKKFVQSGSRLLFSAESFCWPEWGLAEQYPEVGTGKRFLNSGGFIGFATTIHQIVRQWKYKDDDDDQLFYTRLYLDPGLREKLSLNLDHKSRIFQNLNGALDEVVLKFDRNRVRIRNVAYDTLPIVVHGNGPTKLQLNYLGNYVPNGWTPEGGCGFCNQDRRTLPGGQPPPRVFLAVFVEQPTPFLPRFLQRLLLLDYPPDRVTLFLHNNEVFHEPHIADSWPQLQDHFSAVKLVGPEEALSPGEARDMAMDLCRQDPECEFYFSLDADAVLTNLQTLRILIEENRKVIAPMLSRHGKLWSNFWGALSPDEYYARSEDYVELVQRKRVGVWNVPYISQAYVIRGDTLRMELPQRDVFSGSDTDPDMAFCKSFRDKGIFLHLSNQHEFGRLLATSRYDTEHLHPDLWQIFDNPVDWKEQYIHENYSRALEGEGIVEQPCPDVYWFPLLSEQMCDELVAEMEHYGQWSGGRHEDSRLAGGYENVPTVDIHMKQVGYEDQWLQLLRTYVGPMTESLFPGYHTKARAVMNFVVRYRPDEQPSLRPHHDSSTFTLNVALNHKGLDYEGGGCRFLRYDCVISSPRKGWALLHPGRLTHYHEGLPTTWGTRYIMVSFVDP

full-length human adiponectin (Adipo-HEK) (from UniProt Q15848 19-244)
binding [1]: binds

lysyl hydroxylase 3 (LH3) (from UniProt O60568 25-738) (enzyme)
binding [2]: binds
